According to paper doi:10.1101/2020.12.21.423430:
These are yes or no findings as the source states them, for the method shown. For some assays here: Binding seen in cells or lysates may run through a third protein. Some binding calls cover weakened binding; strength is not graded here. For some assays here: Sequences can lack the tags named with a protein.

Chains of the proteins cited; added tags and fusions are not shown.
UniProt P29514, whole entry: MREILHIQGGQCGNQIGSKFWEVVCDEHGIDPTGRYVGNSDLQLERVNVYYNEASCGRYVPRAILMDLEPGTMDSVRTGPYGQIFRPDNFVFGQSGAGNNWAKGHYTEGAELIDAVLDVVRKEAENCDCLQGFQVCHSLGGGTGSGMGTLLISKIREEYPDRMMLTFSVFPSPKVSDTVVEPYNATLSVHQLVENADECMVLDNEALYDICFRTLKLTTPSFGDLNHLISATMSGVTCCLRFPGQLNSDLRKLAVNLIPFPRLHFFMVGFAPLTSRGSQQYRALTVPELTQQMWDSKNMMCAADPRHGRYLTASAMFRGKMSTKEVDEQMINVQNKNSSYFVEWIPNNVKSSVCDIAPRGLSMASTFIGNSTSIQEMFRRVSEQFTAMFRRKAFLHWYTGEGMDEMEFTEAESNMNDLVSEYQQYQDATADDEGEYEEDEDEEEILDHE

B1: TTL3 fused in the pGADT7 vector (yeast two-hybrid) (protein, UniProt Q9SIN1 1-691)
chain: MSHSRRLSLEPAIDSITGRFRDLQRNDDDVNKPDFRELDLGSPVSTLMPRGSASSSAAATPTSSSGSSGSASGKPSVSSQMAKRLDDAYKSHSGELSSPGSGMPTTTRILKPGHRRSSSTGTPLIFSGSSFTSATSHTSPQGGGSGATSAVSPNTGVLPAGNICPSGRILKTGMASRTSSRTETLCTGTGNYGHGNVVRSGGGGGTSGKAVRVAENGENPEELKRMGNDMYRRGSFSEALSLYDRAILISPGNAAYRSNRAAALTALRRLGEAVKECLEAVRIDPSYSRAHQRLASLYLRLGEAENARRHICFSGQCPDQADLQRLQTLEKHLRRCWEARKIGDWKTAIKETDAAIANGADSSPQLVACKAEAFLRLKQIEDSDFCVSCIPRLDHHYHSQPQVKLFGMVVEAYVLCIQAQVDMALGRFENAVVKAERAAMLDQTNPEVVSVLNNVKMVVRARTRGNELFSSGRFSEACVAYGDGLKQDDSNSVLYCNRAACWYKLGLWEKSVEDCNHALKSQPSYIKALLRRAASYGKLGRWEDAVKDYEFLRRELPGDSEVAESLERAKTVLMNRSQESKSLGFNNEVEAVSTLDKFKKSVALPGVSVFHFKSSSNRQCEEISPFINTLCLRYPLVHFFMVDVEESMALAKAESIRKVPTFKMYKNGDKVKEMVCPSHQFLEDSIKHFLL
B2: TTL3 in the pBiFCt-2in1-NC construct (BiFC) (protein, UniProt Q9SIN1 1-691)
chain: MSHSRRLSLEPAIDSITGRFRDLQRNDDDVNKPDFRELDLGSPVSTLMPRGSASSSAAATPTSSSGSSGSASGKPSVSSQMAKRLDDAYKSHSGELSSPGSGMPTTTRILKPGHRRSSSTGTPLIFSGSSFTSATSHTSPQGGGSGATSAVSPNTGVLPAGNICPSGRILKTGMASRTSSRTETLCTGTGNYGHGNVVRSGGGGGTSGKAVRVAENGENPEELKRMGNDMYRRGSFSEALSLYDRAILISPGNAAYRSNRAAALTALRRLGEAVKECLEAVRIDPSYSRAHQRLASLYLRLGEAENARRHICFSGQCPDQADLQRLQTLEKHLRRCWEARKIGDWKTAIKETDAAIANGADSSPQLVACKAEAFLRLKQIEDSDFCVSCIPRLDHHYHSQPQVKLFGMVVEAYVLCIQAQVDMALGRFENAVVKAERAAMLDQTNPEVVSVLNNVKMVVRARTRGNELFSSGRFSEACVAYGDGLKQDDSNSVLYCNRAACWYKLGLWEKSVEDCNHALKSQPSYIKALLRRAASYGKLGRWEDAVKDYEFLRRELPGDSEVAESLERAKTVLMNRSQESKSLGFNNEVEAVSTLDKFKKSVALPGVSVFHFKSSSNRQCEEISPFINTLCLRYPLVHFFMVDVEESMALAKAESIRKVPTFKMYKNGDKVKEMVCPSHQFLEDSIKHFLL

Columns and labels:
[1] = target: TUB6 cloned into the pGBKT7 vector (yeast two-hybrid) (Arabidopsis thaliana) (UniProt P29514); assay: two-hybrid
[2] = target: TUB6 in the pBiFCt-2in1-NC construct (BiFC) (Arabidopsis thaliana) (UniProt P29514); assay: split reporter

Binder | binding [1] | binding [2]
B1 | binds | –
B2 | – | binds
